B1: VZV gB wild type expressed from pCAGGS-gB in CHO-DSP1 cells (protein, UniProt Q4JR05 72-931)
chain: VSPSSFYESLQVEPTQSEDITRSAHLGDGDEIREAIHKSQDAETKPTFYVCPPPTGSTIVRLEPPRTCPDYHLGKNFTEGIAVVYKENIAAYKFKATVYYKDVIVSTAWAGSSYTQITNRYADRVPIPVSEITDTIDKFGKCSSKATYVRNNHKVEAFNEDKNPQDMPLIASKYNSVGSKAWHTTNDTYMVAGTPGTYRTGTSVNCIIEEVEARSIFPYDSFGLSTGDIIYMSPFFGLRDGAYREHSNYAMDRFHQFEGYRQRDLDTRALLEPAARNFLVTPHLTVGWNWKPKRTEVCSLVKWREVEDVVRDEYAHNFRFTMKTLSTTFISETNEFNLNQIHLSQCVKEEARAIINRIYTTRYNSSHVRTGDIQTYLARGGFVVVFQPLLSNSLARLYLQELVRENTNHSPQKHPTRNTRSRRSVPVELRANRTITTTSSVEFAMLQFTYDHIQEHVNEMLARISSSWCQLQNRERALWSGLFPINPSALASTILDQRVKARILGDVISVSNCPELGSDTRIILQNSMRVSGSTTRCYSRPLISIVSLNGSGTVEGQLGTDNELIMSRDLLEPCVANHKRYFLFGHHYVYYEDYRYVREIAVHDVGMISTYVDLNLTLLKDREFMPLQVYTRDELRDTGLLDYSEIQRRNQMHSLRFYDIDKVVQYDSGTAIMQGMAQFFQGLGTAGQAVGHVVLGATGALLSTVHGFTTFLSNPFGALAVGLLVLAGLVAAFFAYRYVLKLKTSPMKALYPLTTKGLKQLPEGMDPFAEKPNATDTPIEEIGDSQNTEPSVNSGFDPDKFREAQEMIKYMTLVSAAERQESKARKKNKTSALLTSRLTGLALRNRRGYSRVRTENVTGV

Amino acid sequences for entries named in this document (tags omitted). Residues count along the entry.
UniProt P09259, residues 31-623: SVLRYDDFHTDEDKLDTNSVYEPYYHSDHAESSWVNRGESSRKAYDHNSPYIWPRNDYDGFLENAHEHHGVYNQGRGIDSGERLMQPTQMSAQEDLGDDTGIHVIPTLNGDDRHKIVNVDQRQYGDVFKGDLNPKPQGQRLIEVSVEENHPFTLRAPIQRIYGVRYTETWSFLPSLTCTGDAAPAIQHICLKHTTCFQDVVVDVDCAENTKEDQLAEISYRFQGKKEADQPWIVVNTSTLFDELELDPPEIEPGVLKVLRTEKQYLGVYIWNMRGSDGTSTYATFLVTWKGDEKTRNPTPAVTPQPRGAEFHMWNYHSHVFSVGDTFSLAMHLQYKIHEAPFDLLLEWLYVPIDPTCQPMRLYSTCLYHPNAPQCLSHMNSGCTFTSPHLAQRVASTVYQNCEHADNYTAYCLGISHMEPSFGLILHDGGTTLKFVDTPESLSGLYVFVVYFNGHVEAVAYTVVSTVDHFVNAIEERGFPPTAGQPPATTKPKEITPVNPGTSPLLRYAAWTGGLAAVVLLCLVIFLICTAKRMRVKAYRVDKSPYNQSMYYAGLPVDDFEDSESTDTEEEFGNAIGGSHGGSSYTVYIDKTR

These are yes or no findings as the source states them, for the method shown. In cells and extracts the contact can be indirect. Some binding calls cover weakened binding; strength is not graded here.

The text below walks through data of PMC7817050 (PLoS Pathogens, 2021).

The first assay has as its target VZV gH-gL heterodimer with V5-tagged gH (varicella-zoster virus) (UniProt P09260). The experiment in a line: co-IP; CHO-DSP1 cells transfected with gB, gH[V5] and gL (for the specificity test also pBud-gE/gI); anti-V5 agarose; western blots for V5, gB and gE. On the technique in general: Immunoblotting shows a protein as a band on a membrane.
Regarding “VZV gB 109AAAA112 (from UniProt Q4JR05 72-931)”, the binding result is on record as “binds”.

Turning to “VZV gB D112A (from UniProt Q4JR05 72-931)”, the binding entry is “binds”.

On to “VZV gB K109A (from UniProt Q4JR05 72-931)”, for which the binding result is on record as “binds”.

Consider “VZV gB K109R (from UniProt Q4JR05 72-931)”, for which the binding result was “binds”.

“VZV gB Q111A (from UniProt Q4JR05 72-931)”: the binding result is given as “binds”.

Take “VZV gB S110A (from UniProt Q4JR05 72-931)”: the binding result is “binds”.

Turning to VZV gE (from UniProt P09259 31-623), the binding entry is “no binding”.

A further assay has the same target. The description is as above. This is another data set of the same source.
B1: the binding entry was “binds”.
